PubChem BioAssay AID1259275, Sanger Institute | 2017
In all, the deposit lists 794 reagents; below is a random part of them. 13 of them (1.6%) count as active. 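Calls mark knock-downs lethal by themselves, not drug synergy; drugs went in a day after transfection, with DMSO as vehicle.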 No viability above 1 is reported: the scale is capped. Reagent sequences are not shown. Not given: the amount of reagent, the time to read-out.

- Screen: 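Kinase and colorectal cancer genes needed for cancer cell survival, with or without drugs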 (primary screen)
- Cells: COLO320HSR human colorectal cancer cells
- Knock-down reagent: siRNA pool against human genes
- Conditions: anchor drug added one day after transfection: BYL719 at 1 µM, cetuximab at 5 µg/ml or trametinib at 10 nM; DMSO as vehicle arm
- Measurement: 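Replicate-mean viability versus non-targeting pool control, robust z-score without drug, and per-drug synergy scores for BYL719 at 1 µM, cetuximab at 5 µg/ml and trametinib at 10 nM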
- Direction: robust z-score, siRNA alone: higher = more viable cells; strongly negative means essential; viability, knock-down alone (DMSO): higher = more viable cells; synergy score with BYL719 and synergy score with cetuximab and synergy score with trametinib: higher = stronger combined killing with drug
- Hit rule: 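Essential means the knock-down by itself gives a robust z-score lower than -3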
- Meaning of the calls: active = essential (siRNA alone); inactive = no change (siRNA alone)

gene symbol	robust z-score, siRNA alone	viability, knock-down alone (DMSO) (fraction of control)	synergy score with BYL719	synergy score with cetuximab	synergy score with trametinib	Outcome
INSR	0.474	0.977	-0.0262	-0.11	-0.0481	inactive
PRKACB	0.726	1	-0.296	-0.0893	-0.0259	inactive
CHKB	0.726	1	-0.0926	0.0174	-0.0259	inactive
CSNK1E	0.584	0.987	-0.0363	-0.082	0.0282	inactive
AKT2	-0.0224	0.932	-0.138	-0.151	-0.0918	inactive
NRBP2	0.726	1	-0.078	0.0227	-0.0259	inactive
RAF1	0.726	1	-0.203	-0.0465	-0.0259	inactive
MECOM	-0.305	0.907	-0.162	-0.174	-0.117	inactive
EFNA4	0.552	0.984	0.0293	-0.102	-0.0413	inactive
EPHA8	0.726	1	-0.0946	-0.0893	-0.0259	inactive
SIK3	0.726	1	-0.0777	-0.0893	-0.0257	inactive
TRIB3	0.155	0.948	0.0192	-0.0967	0.00289	inactive
PRKAR1A	-0.252	0.912	-0.141	-0.0897	-0.0184	inactive
FLT3	0.726	1	-0.187	-0.0893	-0.0259	inactive
MED24	0.726	1	-0.0863	-0.0893	-0.0259	inactive
SMC1A	-2.36	0.722	0.0242	-0.135	-0.161	inactive
PRKD3	-0.592	0.881	-0.187	-0.0772	-0.112	inactive
PFKP	-1.21	0.825	-0.112	-0.094	0.0131	inactive
CERT1	0.726	1	-0.0967	-0.0691	-0.0259	inactive
HK3	0.649	0.993	-0.232	-0.0527	-0.0327	inactive

No new results follow: 2 of the entries above.
gene symbol	robust z-score, siRNA alone	viability, knock-down alone (DMSO) (fraction of control)	synergy score with BYL719	synergy score with cetuximab	synergy score with trametinib	Outcome
CERT1	0.726	1	-0.0967	-0.0691	-0.0259	inactive
HK3	0.649	0.993	-0.232	-0.0527	-0.0327	inactive
